The whole screen tested about 320,000 compounds, of which about 22,000 (6.9%) were called active. Inconclusive means that the source gave no clear call. Such entries were picked first, then a sample of the others. Calls follow the shape of the dose curve; as a rule, active = well fitted inhibition curve with a large enough effect; inconclusive = small, poorly fitted or top-dose-only effect, or another doubt; inactive = no such curve, though single readings can be large or run the other way. A potency beside an inconclusive call is a rough fit, not a confirmed value.
Test: Primary qHTS for delayed death inhibitors of the malarial parasite plastid, 96 hour incubation
Details: P. falciparum luciferase reporter growth; series mostly up to 28.7 µM; activity change, negative = inhibition: at the top concentration
How it was run: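 P. falciparum expressing integrated firefly luciferase, in erythrocytes at 2% hematocrit, 0.05% parasitemia, incubated with compounds 96 h at 37 C, 5% CO2. Growth inhibition read as loss of luminescence; two-generation exposure targets delayed-death apicoplast inhibitors.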
% is scaled to controls: 0 for no effect and ±100 for the full control effect; potency is read from the fitted curve at half-maximal effect.

Which Potency does the source give for `CC1CN(c2nc3ccccn3c(=O)c2/C=C(\C#N)C(=O)N2CCOCC2)CC(C)O1` (stereo not given) here?
The Potency was inconclusive: 4.15 µM [inhibitor, partial curve].

With `Fc1ccc(CNc2ncnc3cc(Cl)ccc23)cc1` as the molecule, how does the Potency read?
Its Potency is inconclusive: 18.5 µM [inhibitor, single point].

With `OCC1(Cc2ccccc2)CCCN(C2CCCC2)C1` (stereo not given) as the molecule, how does the “activity change, negative = inhibition” value read?
Its value is inactive: 22%.

Which Potency does the source give for `Cc1cccc(NC(=O)CSc2nc3c(c(=O)[nH]2)CCC3)c1C` here?
The Potency was inconclusive: 16.5 µM [inhibitor, single point].

For `COc1cc(-c2nnc(SCC(=O)Nc3ccc4c(c3)OCCO4)o2)cc(OC)c1OC`, which Potency is on record?
Its Potency is inconclusive: 18.5 µM [inhibitor, single point].

With `Cc1ccc2c(COC(=O)CC3Sc4ccccc4NC3=O)cc(=O)oc2c1C` (stereo not given) as the molecule, how does the “activity change, negative = inhibition” value read?
The value was inactive: 42.4%.

For `CC1CCCN(CC(=O)Nc2cc(S(=O)(=O)N3CCOCC3)ccc2N2CCCC2)C1` (stereo not given), which Potency is on record?
The Potency was inconclusive: 11.7 µM [inhibitor, single point].

For `Cc1ccc(-c2nnn(CC(=O)NC(=O)NC3CCCCC3)n2)cc1`, which “activity change, negative = inhibition” value is on record?
The value was inactive: 57%.

With `O=C(COC(=O)c1cc(=O)[nH]c(=O)[nH]1)Nc1cccc(S(=O)(=O)N2CCCCC2)c1` as the molecule, how does the Potency read?
The Potency was inconclusive: 4.15 µM [inhibitor, single point].

Which Potency does the source give for `COC(=O)c1c(NC(=O)CN2C(=O)NC3(CCC(C)CC3)C2=O)sc2c1CCC2` (stereo not given) here?
Its Potency is inconclusive: 13.1 µM [inhibitor, single point].

For `COc1ccc(Cc2nnc(Cl)c3ccccc23)cc1OC`, which “activity change, negative = inhibition” value is on record?
Its value is inactive: 1.67%.

Which “activity change, negative = inhibition” value does the source give for `C/C(=N\NC(=O)c1ccc(=O)[nH]n1)c1cccnc1` here?
The value was inactive: -1.13%.

Which Potency does the source give for `Cc1nn(C(=O)c2cccnc2)c(C)c1Sc1ccccc1` here?
Its Potency is inconclusive: 4.15 µM [inhibitor, single point].

For `COc1cc(NC(=O)CN2CCN(S(=O)(=O)c3ccc(C(C)C)cc3)CC2)cc(OC)c1`, which “activity change, negative = inhibition” value is on record?
The value was inactive: 31%.

Which Potency does the source give for `O=C(CN(Cc1ccco1)C(=O)CNS(=O)(=O)c1ccccc1)NC1CCCCC1` here?
Its Potency is inconclusive: 13.1 µM [inhibitor, single point].

With `COc1ccc(OCC(=O)Nc2ccc3oc(-c4ccncc4)nc3c2)cc1` as the molecule, how does the “activity change, negative = inhibition” value read?
The value was inactive: 94.8%.

Which Potency does the source give for `CCOC(=O)N1CCN(C(=O)/C=C/c2ccc3c(c2)OCO3)CC1` here?
Its Potency is inconclusive: 18.5 µM [inhibitor, single point].

For `O=C(CCCc1nc(-c2ccccc2)no1)Nc1cccnc1`, which Potency is on record?
Its Potency is inconclusive: 6.57 µM [inhibitor, partial curve].

For `Cn1c(CNC(=O)Cc2ccc3c(c2)OCO3)nnc1SCc1ccccc1`, which “activity change, negative = inhibition” value is on record?
Its value is inactive: 20.3%.

Which Potency does the source give for `CCCCn1nnnc1SCC(=O)N1CCOCC1` here?
The Potency was inconclusive: 0.37 µM [inhibitor, full curve, poor fit].
